Measured values as given in PubChem BioAssay AID504834 (National Center for Advancing Translational Sciences (NCATS), 2011).
The campaign covered roughly 320,000 compounds. About 22,000 (6.9%) were called active. The shares of active, inactive and inconclusive entries below differ from those in the screen. Calls come from the whole dose curve; as a rule, active = well fitted inhibition curve with a large enough effect; inconclusive = small, poorly fitted or top-dose-only effect, or another doubt; inactive = no such curve, though single readings can be large or run the other way. A potency beside an inconclusive call is a rough fit, not a confirmed value.

Assay: Primary qHTS for delayed death inhibitors of the malarial parasite plastid, 96 hour incubation
Details: P. falciparum luciferase reporter growth; series mostly up to 28.7 µM; activity change, negative = inhibition: at the top concentration
Outline: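 Parasite growth measured via integrated firefly luciferase reporter in P. falciparum. Infected erythrocytes at 2% hematocrit, 0.05% parasitemia final were treated 96 hours at 37 C under 5% CO2, and luminescence was read.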
% is set by controls: 0 for no effect and ±100 for the full control effect; potency is the fitted concentration of half-maximal effect.

Row | SMILES | Potency | activity change, negative = inhibition
1 | CCOC(=O)c1c(S(=O)(=O)NCC(=O)N2CCN(c3cccc(OC)c3)CC2)c(C)n(C)c1C | inconclusive: 14.7 µM [inhibitor, single point] | –
2 | CCOc1ccc(Cl)cc1/C=N/NC(N)=O | – | inactive: 25.7%
3 | COCCCNC(=O)CN1C(=O)CSc2ccc(S(=O)(=O)N3CCOCC3)cc21 | – | inactive: 6.67%
4 | CC(C)Cc1nnc(NC(=O)CC(C)c2ccccc2)s1 (stereo not given) | inconclusive: 14.7 µM [inhibitor, single point] | –
5 | Cc1ccc(-n2ncc3c2CC(C)(C)CC3NC(=O)CCCN2CCCC2=O)cc1 (stereo not given) | inconclusive: 18.5 µM [inhibitor, single point] | –
6 | O=C1Nc2cc(C(=O)N3CCN(c4ccccc4F)CC3)ccc2NC1CSCc1ccccc1F (stereo not given) | inconclusive: 18.5 µM [inhibitor, single point] | –
7 | COc1ccc(OC(C)C(=O)Nc2ccccc2C(F)(F)F)cc1 (stereo not given) | – | inactive: 78.5%
8 | Oc1[nH]c2ccccc2c1C=Nc1ccc2c(c1)OCO2 | inconclusive: 18.5 µM [inhibitor, single point] | –
9 | CC(=O)Nc1ccc(Nc2nnc(-c3ccc(C)c(S(N)(=O)=O)c3)c3ccccc23)cc1 | – | inactive: -1.77%
10 | CN(C)c1ccc(C=C2C(=O)NC(=S)NC2=O)cc1[N+](=O)[O-] | – | inactive: 1.38%
11 | Cc1cccc(C)c1NC(=O)CSCCO | inconclusive: 13.1 µM [inhibitor, partial curve] | –
12 | COc1cc(/C=N/NC(=O)c2sc3nc(C)cc(C)c3c2N)ccc1O | inconclusive: 7.38 µM [inhibitor, partial curve] | –
13 | CC(C)CN(C(=O)CCC1CCCCC1)c1c(N)n(CC(C)C)c(=O)[nH]c1=O | inconclusive: 18.5 µM [inhibitor, single point] | –
14 | O=C(CSc1nnc(CNC(=O)c2ccco2)o1)Nc1nc2ccccc2s1 | inconclusive: 18.5 µM [inhibitor, single point] | –
15 | O=C1CCN(S(=O)(=O)c2cc(C(F)(F)F)ccc2Cl)CC1 | – | inactive: -18.7%
16 | O=C(CSCc1n[nH]c(=O)[nH]1)NCCOc1cccc(Oc2ccccc2)c1 | inconclusive: 11.7 µM [inhibitor, single point] | –
17 | Cc1ccc(S(=O)(=O)N(C)c2ccc(OCC(=O)Nc3ccc(C(=O)N(C)C)cc3)cc2)cc1C | inconclusive: 0.0586 µM [inhibitor, full curve, poor fit] | –
18 | O=C(Nc1cccc(F)c1)/C(=C\c1ccco1)NC(=O)c1ccco1 | inconclusive: 18.5 µM [inhibitor, single point] | –

Row | SMILES | Potency | activity change, negative = inhibition
19 | O=C(O)c1ccc2ncsc2c1 | inconclusive: 0.0928 µM [inhibitor, full curve, poor fit] | –
20 | COc1ccc(CCNCc2ccc(OCC(=O)N3CCCCC3)c(OC)c2)cc1OC | – | inactive: -5.56% [at 5.75 µM]
21 | CSc1ccc(C2N=C(c3ccccc3)NO2)cc1 (stereo not given) | – | inactive: 371%
22 | O=[N+]([O-])c1cccc(CSc2ncnc3ccccc23)c1 | inconclusive: 14.7 µM [inhibitor, single point] | –
23 | COc1ccc(-n2c(SC(CN3CCCCC3)CN3CCCC3=O)nc3ccccc3c2=O)cc1 (stereo not given) | inconclusive: 7.38 µM [inhibitor, partial curve] | –
24 | COc1ccc(CCN2C(=O)C3CC=C(C)CC3C2=O)cc1OC (stereo not given) | – | inactive: 17.6%
25 | CCC(O)(C(=O)Nc1ccccc1C(F)(F)F)c1ccccc1OC (stereo not given) | – | inactive: -32.7%
26 | O=C(CCC1N=C2c3ccccc3N=C(SCC(=O)NCc3ccco3)N2C1=O)NCc1ccco1 (stereo not given) | inconclusive: 9.28 µM [inhibitor, partial curve, poor fit] | –
27 | O=C(COC(=O)c1cc(S(=O)(=O)N2CCCCC2)ccc1N1CCOCC1)NCCc1ccc(F)cc1 | inconclusive: 14.7 µM [inhibitor, single point] | –
28 | COc1cc(NC(=O)COC(=O)CNC(=O)C2CCCCC2)cc(OC)c1 | – | inactive: 17.8%
29 | CCOc1ccc(S(=O)(=O)N2CCCCC2)cc1NC(=O)CN1CCCC1c1cccs1 (stereo not given) | active: 4.65 µM | –
30 | COc1ccccc1CNS(=O)(=O)c1c(C(=O)N2CCCCCC2)c(C)n(C)c1C | inconclusive: 18.5 µM [inhibitor, single point] | –
31 | CCn1c(=O)cc(OCC(=O)NCCCN2CC(C)CC(C)C2)c2ccccc21 (stereo not given) | – | inactive: -4.9%
32 | COc1ccc2c(c1)C13CCCC[C@@H]1C(C2)N(C)CC3 (stereo not given in full) | inactive | –
33 | Cn1c(O)c(C2=NNC(c3ccc(Cl)cc3)C2)c(=O)n(C)c1=O (stereo not given) | inconclusive: 10.4 µM [inhibitor, single point] | –
34 | Cc1ccc(OC(=O)CCC(=O)N2CCc3ccccc32)cc1 | – | inactive: 11.7%
35 | O=C(NCCc1ccccc1F)[C@@H]1CSC2c3ccccc3C(=O)N21 (stereo not given in full) | inconclusive: 18.5 µM [inhibitor, single point] | –

By substructure: the entries above with a Cl atom (three)
Row | SMILES | Potency | activity change, negative = inhibition
2 | CCOc1ccc(Cl)cc1/C=N/NC(N)=O | – | inactive: 25.7%
15 | O=C1CCN(S(=O)(=O)c2cc(C(F)(F)F)ccc2Cl)CC1 | – | inactive: -18.7%
33 | Cn1c(O)c(C2=NNC(c3ccc(Cl)cc3)C2)c(=O)n(C)c1=O (stereo not given) | inconclusive: 10.4 µM [inhibitor, single point] | –
